Laboratory results: patent US20240366649A1, “4-ETHYNYL-3-HYDROXY-TETRAHYDROFURANYL-ADENINE PHOSPHORAMIDATES AND RELATED COMPOUNDS AND THEIR USE IN TREATING MEDICAL CONDITIONS” (ROME THERAPEUTICS, INC., priority 2021, published 2024)
Structures were worked out from names or drawings and are uncertain.

Biological target: LINE1 reverse transcriptase (Homo sapiens, UniProt O00370)
Assay: Transient artificial-intron Cis LINE1 reporter assay
Format: cell-based
Details: read-out: IC50 for inhibiting FLuc luminescence; HEK 293 cells; ratio FLuc/RLuc reports LINE1 activity; tested up to 100 μM
Method: Intron-disrupted Firefly luciferase (FLuc) expression cassettes were generated as described by Xie, Y. et al. “Characterization of L1 retrotransposition with high-throughput dual-luciferase assays,” Nucleic Acid Res. (2011) Vol. 39, No. 3, e16. In addition, the plasmid contained an intact Renilla luciferase (RLuc) expression cassette on the vector backbone, in order to normalize transfection efficiency and measure potential cell toxicity.
HEK 293 cells were seeded in 96-well plates at 1,000 cells/well in 55 μL and grown for 24 hours. Cells were transfected with FuGeneHD (Promega) following the manufacturer's protocol. Each well received 0.133 ng plasmid, 0.4 μL FuGeneHD reagent, and 4.5 μL GlutaMAX-I-supplemented Opti-MEM I reduced-serum medium (Invitrogen). Cells were simultaneously treated with test compound serially diluted starting at 100 μM in a 3-fold dilution dose response.
Luminescence was measured using the Dual-Glo Luciferase Assay System (Promega) following the manufacturer's instructions. The ratio between FLuc and RLuc gene expression was used to report LINE1 activity.

Structure (SMILES): C#C[C@]1(CO[P@@](=O)(N[C@@H](C)C(=O)OC(C)C)Oc2ccccc2)O[C@@H](n2cnc3c(N)nc(Cl)nc32)C[C@@H]1O [Compound I-1, Isopropyl ((S)-(((2R,3S,5R)-5-(6-amino-2-chloro-9H-purin-9-yl)-2-ethynyl-3-hydroxytetrahydrofuran-2-yl)methoxy)(phenoxy)phosphoryl)-L-alaninate]
- IC50: 20 nM
